Measured values reported in PMC12623751.
No constants are given. Whether binding was seen depends on the method and setting. In cells and extracts the contact can be indirect. A yes stands for co-enrichment or nearness to the bait. Other partners may have been found.

Protein sequences, listed by entry. Tags and fused reporters are not part of them.
UniProt Q9UIV1: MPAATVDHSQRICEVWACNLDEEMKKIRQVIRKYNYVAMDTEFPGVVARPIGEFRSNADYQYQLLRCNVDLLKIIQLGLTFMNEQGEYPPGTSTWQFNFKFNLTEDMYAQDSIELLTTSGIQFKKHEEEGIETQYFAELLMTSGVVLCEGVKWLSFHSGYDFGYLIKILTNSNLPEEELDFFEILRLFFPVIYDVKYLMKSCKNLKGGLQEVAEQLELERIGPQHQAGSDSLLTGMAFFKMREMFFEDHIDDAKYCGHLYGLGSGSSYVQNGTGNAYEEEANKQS
UniProt Q13263: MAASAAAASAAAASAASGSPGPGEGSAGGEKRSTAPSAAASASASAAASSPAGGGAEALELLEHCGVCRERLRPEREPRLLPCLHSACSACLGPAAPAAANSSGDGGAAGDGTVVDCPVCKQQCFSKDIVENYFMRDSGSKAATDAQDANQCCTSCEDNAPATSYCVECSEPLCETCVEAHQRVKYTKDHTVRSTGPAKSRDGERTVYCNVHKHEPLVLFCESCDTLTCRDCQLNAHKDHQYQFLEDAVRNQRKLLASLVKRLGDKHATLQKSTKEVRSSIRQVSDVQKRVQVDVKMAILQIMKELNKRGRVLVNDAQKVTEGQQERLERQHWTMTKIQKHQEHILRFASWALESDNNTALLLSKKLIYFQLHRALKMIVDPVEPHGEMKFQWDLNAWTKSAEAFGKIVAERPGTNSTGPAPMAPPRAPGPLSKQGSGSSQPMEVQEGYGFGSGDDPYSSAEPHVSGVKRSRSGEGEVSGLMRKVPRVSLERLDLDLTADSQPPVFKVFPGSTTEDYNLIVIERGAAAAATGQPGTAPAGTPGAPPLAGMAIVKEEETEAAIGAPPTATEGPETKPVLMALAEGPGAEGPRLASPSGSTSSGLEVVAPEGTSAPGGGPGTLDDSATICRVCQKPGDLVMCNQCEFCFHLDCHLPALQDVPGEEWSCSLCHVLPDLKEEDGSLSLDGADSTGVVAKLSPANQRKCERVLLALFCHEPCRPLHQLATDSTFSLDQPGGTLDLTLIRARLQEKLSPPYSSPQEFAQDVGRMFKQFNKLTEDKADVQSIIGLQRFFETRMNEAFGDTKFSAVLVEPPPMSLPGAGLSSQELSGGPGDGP
UniProt P19474: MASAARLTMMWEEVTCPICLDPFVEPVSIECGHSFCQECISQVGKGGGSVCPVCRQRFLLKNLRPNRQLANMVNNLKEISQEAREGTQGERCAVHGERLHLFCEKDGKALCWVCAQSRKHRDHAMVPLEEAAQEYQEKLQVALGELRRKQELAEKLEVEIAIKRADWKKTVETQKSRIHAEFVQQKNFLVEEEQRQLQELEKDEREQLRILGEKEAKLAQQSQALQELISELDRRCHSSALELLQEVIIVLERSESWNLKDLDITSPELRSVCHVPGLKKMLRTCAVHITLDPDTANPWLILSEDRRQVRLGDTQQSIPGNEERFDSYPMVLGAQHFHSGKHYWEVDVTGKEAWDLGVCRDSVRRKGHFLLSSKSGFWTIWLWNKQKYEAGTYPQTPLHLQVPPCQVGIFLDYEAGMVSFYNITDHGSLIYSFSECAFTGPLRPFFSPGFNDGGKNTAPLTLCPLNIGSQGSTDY
UniProt P12956: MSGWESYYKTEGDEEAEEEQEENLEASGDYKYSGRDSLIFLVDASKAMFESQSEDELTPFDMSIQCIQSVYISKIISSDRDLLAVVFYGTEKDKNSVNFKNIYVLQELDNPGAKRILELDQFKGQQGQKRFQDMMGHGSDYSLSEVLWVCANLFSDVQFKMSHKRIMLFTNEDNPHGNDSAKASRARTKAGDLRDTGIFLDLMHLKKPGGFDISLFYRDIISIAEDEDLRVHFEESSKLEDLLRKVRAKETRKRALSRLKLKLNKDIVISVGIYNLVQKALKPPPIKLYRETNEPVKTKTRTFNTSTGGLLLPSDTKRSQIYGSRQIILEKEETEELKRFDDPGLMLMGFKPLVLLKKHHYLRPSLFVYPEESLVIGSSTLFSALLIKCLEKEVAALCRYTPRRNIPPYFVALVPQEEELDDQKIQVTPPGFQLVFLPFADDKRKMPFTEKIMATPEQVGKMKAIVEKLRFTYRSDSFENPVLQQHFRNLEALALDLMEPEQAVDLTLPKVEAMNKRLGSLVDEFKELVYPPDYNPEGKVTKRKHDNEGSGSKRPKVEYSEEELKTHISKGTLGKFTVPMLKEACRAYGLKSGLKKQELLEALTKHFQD

Target: CCR4-NOT transcription complex subunit 7 (CNOT7) (human (endogenous in HCT116 and SW480)) (UniProt Q9UIV1)
Experiment: affinity purification with mass spectrometry; HCT116 lysate immunoprecipitated with IgG or CNOT7 antibody; gel strips digested, LC-MS/MS (Q Exactive Plus)

Row | binding | Substance
1 | binds | TRIM28 (from UniProt Q13263 1-835)
2 | binds | Tripartite motif containing 21 (TRIM21) (from UniProt P19474 1-475)
3 | binds | X-ray repair cross complementing 6 (XRCC6) (from UniProt P12956 1-609)
